± gives the standard deviation of the averaged measurements. The list shows a part of the results.
Compound: Nc1nc2c(ncn2[C@@H]2O[C@H](COP(=O)(O)OP(=O)(O)OP(=O)(O)O)[C@@H](O)[C@H]2O)c(=O)[nH]1 [guanosine triphosphate]
Assay: NP40-soluble protein abundance relative to vehicle (solubility fold change) (ratio); higher = more soluble protein in presence of GTP
Procedure, shortened: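 Values are fold changes against the detergent-processed vehicle, based on vsn-normalised intensities. Jurkat crude lysate was treated at eight concentrations from 0.1 to 10 mM (10 min at room temperature, then 3 min at 37 °C), solubilised with 0.8% NP40 and benzonase, ultracentrifuged and analysed by TMT-labelled LC-MS/MS over three independent experiments.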

The chains behind the UniProt entries cited, without tags or fusion partners. Where a name states a change or a piece, a line headed by the entry shows the natural chain unless it says otherwise.
UniProt P31946: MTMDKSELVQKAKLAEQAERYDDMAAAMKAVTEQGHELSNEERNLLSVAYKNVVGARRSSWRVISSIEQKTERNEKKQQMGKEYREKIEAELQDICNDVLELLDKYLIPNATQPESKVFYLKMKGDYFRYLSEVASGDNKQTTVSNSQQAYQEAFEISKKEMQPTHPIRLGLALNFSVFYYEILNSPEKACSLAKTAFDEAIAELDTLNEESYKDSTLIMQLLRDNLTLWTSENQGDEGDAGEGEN
UniProt P48643, whole entry: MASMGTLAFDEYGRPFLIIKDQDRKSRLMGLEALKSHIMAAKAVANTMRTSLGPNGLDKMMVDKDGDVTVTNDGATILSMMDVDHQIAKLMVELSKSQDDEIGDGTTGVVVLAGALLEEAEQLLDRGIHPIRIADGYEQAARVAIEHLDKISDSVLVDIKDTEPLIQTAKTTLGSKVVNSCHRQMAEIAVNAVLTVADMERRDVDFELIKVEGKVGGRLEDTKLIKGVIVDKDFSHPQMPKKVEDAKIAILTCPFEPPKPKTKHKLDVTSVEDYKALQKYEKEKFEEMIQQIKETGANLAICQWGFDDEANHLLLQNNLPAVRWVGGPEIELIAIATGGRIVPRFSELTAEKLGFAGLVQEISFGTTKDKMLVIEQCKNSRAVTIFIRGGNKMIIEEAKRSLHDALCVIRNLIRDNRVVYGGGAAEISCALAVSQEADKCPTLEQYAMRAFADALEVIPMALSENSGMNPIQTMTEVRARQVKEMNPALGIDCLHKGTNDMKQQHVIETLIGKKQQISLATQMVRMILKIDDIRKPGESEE
UniProt P49643: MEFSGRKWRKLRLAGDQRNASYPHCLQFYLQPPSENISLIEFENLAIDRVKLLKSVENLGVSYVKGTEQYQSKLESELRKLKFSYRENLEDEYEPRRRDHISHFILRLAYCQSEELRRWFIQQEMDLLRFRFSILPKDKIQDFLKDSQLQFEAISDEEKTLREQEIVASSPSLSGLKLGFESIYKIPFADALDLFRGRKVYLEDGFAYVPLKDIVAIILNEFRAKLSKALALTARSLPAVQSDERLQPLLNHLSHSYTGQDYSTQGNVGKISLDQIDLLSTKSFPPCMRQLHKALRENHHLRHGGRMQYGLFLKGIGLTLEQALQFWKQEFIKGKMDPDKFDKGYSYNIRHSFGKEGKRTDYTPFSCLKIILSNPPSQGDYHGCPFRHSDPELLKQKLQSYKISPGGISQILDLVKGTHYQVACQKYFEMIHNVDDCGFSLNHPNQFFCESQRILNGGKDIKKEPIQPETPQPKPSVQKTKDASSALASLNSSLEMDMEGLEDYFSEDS
UniProt P46531, whole entry: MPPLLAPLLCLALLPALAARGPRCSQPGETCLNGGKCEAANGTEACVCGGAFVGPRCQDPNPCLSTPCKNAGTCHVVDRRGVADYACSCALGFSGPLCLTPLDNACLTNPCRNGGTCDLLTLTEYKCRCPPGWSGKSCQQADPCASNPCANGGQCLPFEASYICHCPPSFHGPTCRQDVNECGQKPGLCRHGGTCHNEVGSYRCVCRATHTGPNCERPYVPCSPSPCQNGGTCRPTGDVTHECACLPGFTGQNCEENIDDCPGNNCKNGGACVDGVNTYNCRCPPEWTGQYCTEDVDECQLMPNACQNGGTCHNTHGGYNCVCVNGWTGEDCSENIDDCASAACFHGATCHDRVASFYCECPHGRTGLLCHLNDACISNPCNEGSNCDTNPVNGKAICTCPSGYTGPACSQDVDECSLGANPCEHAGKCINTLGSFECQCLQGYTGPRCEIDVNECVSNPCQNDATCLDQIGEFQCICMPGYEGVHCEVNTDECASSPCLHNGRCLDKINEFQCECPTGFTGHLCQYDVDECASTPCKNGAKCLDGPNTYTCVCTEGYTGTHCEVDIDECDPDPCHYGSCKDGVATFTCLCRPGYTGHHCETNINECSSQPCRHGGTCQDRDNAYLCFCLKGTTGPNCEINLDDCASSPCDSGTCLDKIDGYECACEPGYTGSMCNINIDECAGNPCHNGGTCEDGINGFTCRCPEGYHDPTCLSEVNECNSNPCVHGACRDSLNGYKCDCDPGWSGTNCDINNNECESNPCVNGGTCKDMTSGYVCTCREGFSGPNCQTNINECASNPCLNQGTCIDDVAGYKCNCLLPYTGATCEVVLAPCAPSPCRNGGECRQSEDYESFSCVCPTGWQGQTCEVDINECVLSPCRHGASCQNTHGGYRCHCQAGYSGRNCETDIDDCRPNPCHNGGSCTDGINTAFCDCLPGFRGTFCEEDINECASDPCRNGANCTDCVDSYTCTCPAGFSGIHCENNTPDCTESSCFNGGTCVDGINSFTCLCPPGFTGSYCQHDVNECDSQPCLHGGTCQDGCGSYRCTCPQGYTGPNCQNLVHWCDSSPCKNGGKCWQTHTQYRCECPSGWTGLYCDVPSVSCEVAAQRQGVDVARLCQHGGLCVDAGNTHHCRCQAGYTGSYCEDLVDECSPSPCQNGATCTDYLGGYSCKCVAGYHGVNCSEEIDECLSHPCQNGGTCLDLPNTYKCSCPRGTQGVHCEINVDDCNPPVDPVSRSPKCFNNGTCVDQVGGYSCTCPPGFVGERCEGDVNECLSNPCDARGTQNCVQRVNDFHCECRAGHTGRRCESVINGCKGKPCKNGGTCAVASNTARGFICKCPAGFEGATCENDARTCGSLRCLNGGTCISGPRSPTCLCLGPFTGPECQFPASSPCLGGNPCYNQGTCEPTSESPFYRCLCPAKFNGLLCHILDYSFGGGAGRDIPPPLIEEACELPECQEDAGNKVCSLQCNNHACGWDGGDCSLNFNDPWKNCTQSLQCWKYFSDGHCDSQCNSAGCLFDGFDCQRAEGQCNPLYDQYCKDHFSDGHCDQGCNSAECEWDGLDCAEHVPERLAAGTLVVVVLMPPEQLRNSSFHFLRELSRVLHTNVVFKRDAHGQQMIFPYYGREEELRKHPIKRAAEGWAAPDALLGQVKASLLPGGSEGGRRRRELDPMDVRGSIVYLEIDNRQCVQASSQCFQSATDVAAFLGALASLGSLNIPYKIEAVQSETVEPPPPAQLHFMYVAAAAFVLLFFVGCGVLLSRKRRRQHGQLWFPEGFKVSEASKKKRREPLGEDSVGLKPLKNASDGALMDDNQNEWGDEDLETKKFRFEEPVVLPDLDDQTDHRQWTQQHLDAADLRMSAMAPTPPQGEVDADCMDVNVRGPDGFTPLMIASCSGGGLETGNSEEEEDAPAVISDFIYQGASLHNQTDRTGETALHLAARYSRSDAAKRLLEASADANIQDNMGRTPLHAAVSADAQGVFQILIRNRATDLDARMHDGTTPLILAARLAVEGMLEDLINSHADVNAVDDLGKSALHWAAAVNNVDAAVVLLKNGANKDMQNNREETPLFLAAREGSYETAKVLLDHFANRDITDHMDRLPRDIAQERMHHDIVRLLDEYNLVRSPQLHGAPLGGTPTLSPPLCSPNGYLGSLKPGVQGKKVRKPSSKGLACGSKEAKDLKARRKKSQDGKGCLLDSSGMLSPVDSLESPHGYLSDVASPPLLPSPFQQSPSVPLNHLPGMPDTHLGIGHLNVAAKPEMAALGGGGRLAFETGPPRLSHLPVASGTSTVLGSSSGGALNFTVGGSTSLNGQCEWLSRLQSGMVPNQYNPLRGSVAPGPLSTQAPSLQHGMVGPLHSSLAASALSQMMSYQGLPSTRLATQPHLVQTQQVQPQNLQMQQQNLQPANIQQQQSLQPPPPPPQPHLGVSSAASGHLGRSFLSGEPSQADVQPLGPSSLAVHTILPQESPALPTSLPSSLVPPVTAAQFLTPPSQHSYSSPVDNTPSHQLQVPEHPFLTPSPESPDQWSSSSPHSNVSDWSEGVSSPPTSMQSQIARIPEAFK
UniProt P50238: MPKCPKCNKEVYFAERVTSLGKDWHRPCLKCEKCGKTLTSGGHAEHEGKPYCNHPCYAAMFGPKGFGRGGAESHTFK
UniProt P27701: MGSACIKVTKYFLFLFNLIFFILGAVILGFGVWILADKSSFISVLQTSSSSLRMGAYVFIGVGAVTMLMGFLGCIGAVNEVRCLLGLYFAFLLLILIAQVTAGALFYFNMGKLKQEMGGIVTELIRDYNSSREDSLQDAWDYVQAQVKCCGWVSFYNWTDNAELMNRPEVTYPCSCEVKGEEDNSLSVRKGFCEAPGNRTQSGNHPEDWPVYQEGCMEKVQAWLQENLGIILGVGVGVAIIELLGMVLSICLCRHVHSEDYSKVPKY
UniProt P35244: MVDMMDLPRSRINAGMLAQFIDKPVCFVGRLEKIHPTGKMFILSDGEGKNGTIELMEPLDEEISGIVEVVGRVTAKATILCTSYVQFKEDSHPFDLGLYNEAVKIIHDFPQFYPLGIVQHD
UniProt P42025, whole entry: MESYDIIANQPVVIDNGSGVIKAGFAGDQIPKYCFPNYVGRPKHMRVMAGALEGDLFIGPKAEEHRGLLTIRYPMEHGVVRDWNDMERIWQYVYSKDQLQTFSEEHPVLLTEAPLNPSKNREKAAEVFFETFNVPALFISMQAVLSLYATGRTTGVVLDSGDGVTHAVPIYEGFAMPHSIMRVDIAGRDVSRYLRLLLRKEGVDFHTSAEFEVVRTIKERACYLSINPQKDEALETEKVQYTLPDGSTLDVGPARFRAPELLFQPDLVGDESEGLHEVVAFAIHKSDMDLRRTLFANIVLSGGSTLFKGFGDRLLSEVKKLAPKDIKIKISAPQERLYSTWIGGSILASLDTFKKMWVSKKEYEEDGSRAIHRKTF
UniProt P30613: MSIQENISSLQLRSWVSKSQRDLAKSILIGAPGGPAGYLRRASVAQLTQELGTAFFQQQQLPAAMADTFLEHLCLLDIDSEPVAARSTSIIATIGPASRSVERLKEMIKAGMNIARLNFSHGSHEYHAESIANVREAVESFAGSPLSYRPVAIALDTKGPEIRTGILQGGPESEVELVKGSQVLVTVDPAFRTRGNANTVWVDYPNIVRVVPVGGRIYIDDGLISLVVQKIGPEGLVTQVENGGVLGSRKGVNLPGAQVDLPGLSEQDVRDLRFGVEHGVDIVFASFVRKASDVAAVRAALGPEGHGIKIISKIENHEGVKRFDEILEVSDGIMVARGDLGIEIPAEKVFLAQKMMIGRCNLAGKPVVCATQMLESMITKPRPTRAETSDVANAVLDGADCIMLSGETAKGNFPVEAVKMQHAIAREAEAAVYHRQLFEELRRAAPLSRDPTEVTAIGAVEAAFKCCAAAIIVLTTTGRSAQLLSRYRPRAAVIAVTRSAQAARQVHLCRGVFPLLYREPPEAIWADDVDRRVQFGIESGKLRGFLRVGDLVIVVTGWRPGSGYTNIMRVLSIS
UniProt P49914: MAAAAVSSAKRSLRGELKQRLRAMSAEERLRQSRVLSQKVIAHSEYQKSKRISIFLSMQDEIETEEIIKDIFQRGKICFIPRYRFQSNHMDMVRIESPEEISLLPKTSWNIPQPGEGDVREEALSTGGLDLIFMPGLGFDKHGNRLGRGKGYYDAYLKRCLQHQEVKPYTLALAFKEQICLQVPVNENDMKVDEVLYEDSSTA
UniProt P43403: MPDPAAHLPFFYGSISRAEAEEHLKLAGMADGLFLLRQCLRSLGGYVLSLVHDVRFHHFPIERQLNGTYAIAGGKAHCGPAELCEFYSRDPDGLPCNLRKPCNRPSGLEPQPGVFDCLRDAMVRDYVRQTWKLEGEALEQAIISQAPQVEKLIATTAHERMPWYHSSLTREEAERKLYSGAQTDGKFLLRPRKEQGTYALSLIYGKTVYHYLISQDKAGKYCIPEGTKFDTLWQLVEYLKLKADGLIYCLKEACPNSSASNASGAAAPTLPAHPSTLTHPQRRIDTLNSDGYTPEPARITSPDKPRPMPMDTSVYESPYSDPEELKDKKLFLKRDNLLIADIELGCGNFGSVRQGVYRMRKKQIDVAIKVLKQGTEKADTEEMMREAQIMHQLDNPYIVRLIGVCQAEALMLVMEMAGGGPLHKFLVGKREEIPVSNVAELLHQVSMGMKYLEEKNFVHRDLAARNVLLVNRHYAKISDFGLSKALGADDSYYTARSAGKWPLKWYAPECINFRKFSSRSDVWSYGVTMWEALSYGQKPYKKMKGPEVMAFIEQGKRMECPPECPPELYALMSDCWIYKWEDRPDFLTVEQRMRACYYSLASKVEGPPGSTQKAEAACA
UniProt P31146: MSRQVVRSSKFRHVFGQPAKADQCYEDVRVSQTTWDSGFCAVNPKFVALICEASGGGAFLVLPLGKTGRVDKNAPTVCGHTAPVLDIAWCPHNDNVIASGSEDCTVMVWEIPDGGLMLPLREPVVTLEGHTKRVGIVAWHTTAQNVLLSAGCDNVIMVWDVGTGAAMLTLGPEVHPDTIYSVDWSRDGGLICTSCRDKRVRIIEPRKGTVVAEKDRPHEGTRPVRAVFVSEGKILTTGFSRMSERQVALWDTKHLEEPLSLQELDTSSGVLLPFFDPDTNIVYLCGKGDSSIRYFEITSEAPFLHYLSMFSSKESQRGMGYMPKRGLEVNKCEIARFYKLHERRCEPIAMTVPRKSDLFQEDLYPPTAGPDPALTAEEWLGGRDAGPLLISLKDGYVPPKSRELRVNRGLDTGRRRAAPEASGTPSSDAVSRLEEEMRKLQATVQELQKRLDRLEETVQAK

UniProt P31946 and related entries
NP40-soluble protein abundance (concentration: 0.1mM): 0.802 ± 0.086
NP40-soluble protein abundance (concentration: 0.5mM): 0.796 ± 0.052
NP40-soluble protein abundance (concentration: 1mM): 0.977 ± 0.11
NP40-soluble protein abundance (concentration: 2mM): 0.962 ± 0.029
NP40-soluble protein abundance (concentration: 4mM): 0.884 ± 0.041
NP40-soluble protein abundance (concentration: 6mM): 0.964 ± 0.051
NP40-soluble protein abundance (concentration: 8mM): 0.875 ± 0.11
NP40-soluble protein abundance (concentration: 10mM): 1.04 ± 0.14

CCT5 (UniProt P48643)
NP40-soluble protein abundance (concentration: 0.1mM): 1.02 ± 0.03
NP40-soluble protein abundance (concentration: 0.5mM): 1.08 ± 0.1
NP40-soluble protein abundance (concentration: 1mM): 1.1 ± 0.14
NP40-soluble protein abundance (concentration: 2mM): 1.07 ± 0.16
NP40-soluble protein abundance (concentration: 4mM): 1.08 ± 0.18
NP40-soluble protein abundance (concentration: 6mM): 1.07 ± 0.2
NP40-soluble protein abundance (concentration: 8mM): 1.07 ± 0.2
NP40-soluble protein abundance (concentration: 10mM): 0.984 ± 0.19

PRIM2 (UniProt P49643)
NP40-soluble protein abundance (concentration: 0.1mM): 1.01 ± 0.046
NP40-soluble protein abundance (concentration: 0.5mM): 1.01 ± 0.055
NP40-soluble protein abundance (concentration: 1mM): 1.01 ± 0.052
NP40-soluble protein abundance (concentration: 2mM): 1.01 ± 0.05
NP40-soluble protein abundance (concentration: 4mM): 0.982 ± 0.033
NP40-soluble protein abundance (concentration: 6mM): 0.963 ± 0.025
NP40-soluble protein abundance (concentration: 8mM): 0.961 ± 0.085
NP40-soluble protein abundance (concentration: 10mM): 0.945 ± 0.063

NOTCH1 (UniProt P46531)
NP40-soluble protein abundance (concentration: 0.1mM): 1.06 ± 0.016
NP40-soluble protein abundance (concentration: 0.5mM): 1.03 ± 0.03
NP40-soluble protein abundance (concentration: 1mM): 1.04 ± 0.058
NP40-soluble protein abundance (concentration: 2mM): 1.07 ± 0.071
NP40-soluble protein abundance (concentration: 4mM): 1.05 ± 0.043
NP40-soluble protein abundance (concentration: 6mM): 1.03 ± 0.051
NP40-soluble protein abundance (concentration: 8mM): 1.04 ± 0.042
NP40-soluble protein abundance (concentration: 10mM): 0.991 ± 0.065

AGL (UniProt P35573)
NP40-soluble protein abundance (concentration: 0.1mM): 1.11 ± 0.13
NP40-soluble protein abundance (concentration: 0.5mM): 1.18 ± 0.23
NP40-soluble protein abundance (concentration: 1mM): 1.09 ± 0.19
NP40-soluble protein abundance (concentration: 2mM): 1.21 ± 0.31
NP40-soluble protein abundance (concentration: 4mM): 1.29 ± 0.37
NP40-soluble protein abundance (concentration: 6mM): 1.24 ± 0.32
NP40-soluble protein abundance (concentration: 8mM): 1.18 ± 0.28
NP40-soluble protein abundance (concentration: 10mM): 1.26 ± 0.34

CRIP1 (UniProt P50238)
NP40-soluble protein abundance (concentration: 0.1mM): 0.992 ± 0.077
NP40-soluble protein abundance (concentration: 0.5mM): 0.952 ± 0.04
NP40-soluble protein abundance (concentration: 1mM): 1.08 ± 0.065
NP40-soluble protein abundance (concentration: 2mM): 1.02 ± 0.043
NP40-soluble protein abundance (concentration: 4mM): 1.01 ± 0.016
NP40-soluble protein abundance (concentration: 6mM): 1.04 ± 0.029
NP40-soluble protein abundance (concentration: 8mM): 1.06 ± 0.033
NP40-soluble protein abundance (concentration: 10mM): 1.07 ± 0.033

UniProt P27701 and related entries
NP40-soluble protein abundance (concentration: 0.1mM): 0.973 ± 0.08
NP40-soluble protein abundance (concentration: 0.5mM): 0.937 ± 0.1
NP40-soluble protein abundance (concentration: 1mM): 0.942 ± 0.079
NP40-soluble protein abundance (concentration: 2mM): 0.952 ± 0.076
NP40-soluble protein abundance (concentration: 4mM): 0.961 ± 0.059
NP40-soluble protein abundance (concentration: 6mM): 0.909 ± 0.062
NP40-soluble protein abundance (concentration: 8mM): 0.952 ± 0.07
NP40-soluble protein abundance (concentration: 10mM): 0.979 ± 0.039

RPA3 (UniProt P35244)
NP40-soluble protein abundance (concentration: 0.1mM): 0.925 ± 0.12
NP40-soluble protein abundance (concentration: 0.5mM): 0.913 ± 0.082
NP40-soluble protein abundance (concentration: 1mM): 0.96 ± 0.13
NP40-soluble protein abundance (concentration: 2mM): 0.935 ± 0.1
NP40-soluble protein abundance (concentration: 4mM): 0.906 ± 0.085
NP40-soluble protein abundance (concentration: 6mM): 0.932 ± 0.07
NP40-soluble protein abundance (concentration: 8mM): 0.891 ± 0.13
NP40-soluble protein abundance (concentration: 10mM): 0.934 ± 0.1

HPCAL1 (UniProt P37235)
NP40-soluble protein abundance (concentration: 0.1mM): 0.944 ± 0.045
NP40-soluble protein abundance (concentration: 0.5mM): 0.946 ± 0.056
NP40-soluble protein abundance (concentration: 1mM): 0.932 ± 0.024
NP40-soluble protein abundance (concentration: 2mM): 0.957 ± 0.036
NP40-soluble protein abundance (concentration: 4mM): 0.909 ± 0.083
NP40-soluble protein abundance (concentration: 6mM): 0.922 ± 0.056
NP40-soluble protein abundance (concentration: 8mM): 0.907 ± 0.098
NP40-soluble protein abundance (concentration: 10mM): 0.931 ± 0.088

ACTR1B (UniProt P42025)
NP40-soluble protein abundance (concentration: 0.1mM): 1.05 ± 0.038
NP40-soluble protein abundance (concentration: 0.5mM): 1.09 ± 0.064
NP40-soluble protein abundance (concentration: 1mM): 1.06 ± 0.073
NP40-soluble protein abundance (concentration: 2mM): 1.14 ± 0.15
NP40-soluble protein abundance (concentration: 4mM): 1.14 ± 0.16
NP40-soluble protein abundance (concentration: 6mM): 1.13 ± 0.13
NP40-soluble protein abundance (concentration: 8mM): 1.1 ± 0.099
NP40-soluble protein abundance (concentration: 10mM): 1.1 ± 0.14

UniProt P30613 and related entries
NP40-soluble protein abundance (concentration: 0.1mM): 1.19 ± 0.25
NP40-soluble protein abundance (concentration: 0.5mM): 1.21 ± 0.22
NP40-soluble protein abundance (concentration: 1mM): 1.05 ± 0.099
NP40-soluble protein abundance (concentration: 2mM): 1.08 ± 0.23
NP40-soluble protein abundance (concentration: 4mM): 1.01 ± 0.2
NP40-soluble protein abundance (concentration: 6mM): 1.03 ± 0.18
NP40-soluble protein abundance (concentration: 8mM): 0.886 ± 0.16
NP40-soluble protein abundance (concentration: 10mM): 0.804 ± 0.26

UniProt P29350 and related entries
NP40-soluble protein abundance (concentration: 0.1mM): 0.97 ± 0.04
NP40-soluble protein abundance (concentration: 0.5mM): 1.01 ± 0.043
NP40-soluble protein abundance (concentration: 1mM): 0.936 ± 0.041
NP40-soluble protein abundance (concentration: 2mM): 0.895 ± 0.049
NP40-soluble protein abundance (concentration: 4mM): 0.868 ± 0.055
NP40-soluble protein abundance (concentration: 6mM): 0.893 ± 0.059
NP40-soluble protein abundance (concentration: 8mM): 0.871 ± 0.047
NP40-soluble protein abundance (concentration: 10mM): 0.844 ± 0.078

MTHFS (UniProt P49914)
NP40-soluble protein abundance (concentration: 0.1mM): 0.926 ± 0.043
NP40-soluble protein abundance (concentration: 0.5mM): 0.957 ± 0.032
NP40-soluble protein abundance (concentration: 1mM): 0.846 ± 0.07
NP40-soluble protein abundance (concentration: 2mM): 0.861 ± 0.046
NP40-soluble protein abundance (concentration: 4mM): 0.824 ± 0.056
NP40-soluble protein abundance (concentration: 6mM): 0.836 ± 0.072
NP40-soluble protein abundance (concentration: 8mM): 0.794 ± 0.093
NP40-soluble protein abundance (concentration: 10mM): 0.804 ± 0.082

ZAP70 (UniProt P43403)
NP40-soluble protein abundance (concentration: 0.1mM): 1.02 ± 0.026
NP40-soluble protein abundance (concentration: 0.5mM): 1.03 ± 0.067
NP40-soluble protein abundance (concentration: 1mM): 0.932 ± 0.029
NP40-soluble protein abundance (concentration: 2mM): 0.927 ± 0.032
NP40-soluble protein abundance (concentration: 4mM): 0.908 ± 0.019
NP40-soluble protein abundance (concentration: 6mM): 0.889 ± 0.018
NP40-soluble protein abundance (concentration: 8mM): 0.875 ± 0.047
NP40-soluble protein abundance (concentration: 10mM): 0.827 ± 0.05

CORO1A (UniProt P31146)
NP40-soluble protein abundance (concentration: 0.1mM): 0.993 ± 0.018
NP40-soluble protein abundance (concentration: 0.5mM): 1.08 ± 0.024
NP40-soluble protein abundance (concentration: 1mM): 1.05 ± 0.034
NP40-soluble protein abundance (concentration: 2mM): 1.02 ± 0.038
NP40-soluble protein abundance (concentration: 4mM): 1.02 ± 0.038
NP40-soluble protein abundance (concentration: 6mM): 1.05 ± 0.035
NP40-soluble protein abundance (concentration: 8mM): 1.07 ± 0.071
NP40-soluble protein abundance (concentration: 10mM): 1.04 ± 0.065

— the supplement of paper PMC6411743
